Measured values as given in the supplement of paper PMC12067093, “Discovery and optimisation of a covalent ligand for TRIM25 and its application to targeted protein ubiquitination” (Chemical Science, 2025).
The list shows a part of the results.

Amino acid sequences for entries named in this document (tags omitted). A change or cut given only in a name is not applied to a line headed by its entry.
UniProt Q15022: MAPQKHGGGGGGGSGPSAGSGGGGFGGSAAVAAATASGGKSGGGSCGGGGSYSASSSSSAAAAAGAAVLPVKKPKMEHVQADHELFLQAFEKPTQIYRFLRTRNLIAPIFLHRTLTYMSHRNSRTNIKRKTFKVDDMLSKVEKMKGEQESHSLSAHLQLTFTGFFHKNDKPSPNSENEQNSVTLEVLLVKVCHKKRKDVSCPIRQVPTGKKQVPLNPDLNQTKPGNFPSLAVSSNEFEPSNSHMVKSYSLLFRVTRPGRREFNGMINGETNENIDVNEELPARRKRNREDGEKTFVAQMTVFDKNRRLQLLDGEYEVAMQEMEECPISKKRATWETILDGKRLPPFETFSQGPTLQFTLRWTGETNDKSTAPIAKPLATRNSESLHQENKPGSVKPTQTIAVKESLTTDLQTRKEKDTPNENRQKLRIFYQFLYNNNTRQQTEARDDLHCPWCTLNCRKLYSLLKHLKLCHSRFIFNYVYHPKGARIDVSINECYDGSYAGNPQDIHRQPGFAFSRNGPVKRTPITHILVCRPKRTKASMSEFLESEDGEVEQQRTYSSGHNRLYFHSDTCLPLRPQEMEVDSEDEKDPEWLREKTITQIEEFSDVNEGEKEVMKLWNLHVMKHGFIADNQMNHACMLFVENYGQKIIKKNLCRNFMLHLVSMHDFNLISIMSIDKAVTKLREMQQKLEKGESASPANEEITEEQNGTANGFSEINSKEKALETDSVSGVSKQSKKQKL
UniProt Q9UH99: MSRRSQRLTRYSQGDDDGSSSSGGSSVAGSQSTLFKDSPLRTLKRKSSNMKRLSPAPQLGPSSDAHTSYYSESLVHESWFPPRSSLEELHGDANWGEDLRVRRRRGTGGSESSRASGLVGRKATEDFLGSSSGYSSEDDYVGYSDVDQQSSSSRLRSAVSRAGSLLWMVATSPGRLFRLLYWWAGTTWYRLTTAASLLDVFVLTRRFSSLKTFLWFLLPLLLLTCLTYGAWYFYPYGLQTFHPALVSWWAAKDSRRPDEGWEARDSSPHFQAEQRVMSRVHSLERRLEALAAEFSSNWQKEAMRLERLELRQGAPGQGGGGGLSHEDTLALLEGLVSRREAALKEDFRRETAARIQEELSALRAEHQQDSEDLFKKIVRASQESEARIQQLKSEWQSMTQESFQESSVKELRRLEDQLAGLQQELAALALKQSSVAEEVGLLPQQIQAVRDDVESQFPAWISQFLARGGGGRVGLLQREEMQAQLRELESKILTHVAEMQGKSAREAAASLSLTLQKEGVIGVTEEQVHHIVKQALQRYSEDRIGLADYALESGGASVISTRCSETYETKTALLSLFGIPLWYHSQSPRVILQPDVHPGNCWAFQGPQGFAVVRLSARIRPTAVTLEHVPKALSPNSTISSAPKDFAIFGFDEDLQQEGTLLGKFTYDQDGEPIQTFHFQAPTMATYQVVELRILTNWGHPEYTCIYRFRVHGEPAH
UniProt P52630: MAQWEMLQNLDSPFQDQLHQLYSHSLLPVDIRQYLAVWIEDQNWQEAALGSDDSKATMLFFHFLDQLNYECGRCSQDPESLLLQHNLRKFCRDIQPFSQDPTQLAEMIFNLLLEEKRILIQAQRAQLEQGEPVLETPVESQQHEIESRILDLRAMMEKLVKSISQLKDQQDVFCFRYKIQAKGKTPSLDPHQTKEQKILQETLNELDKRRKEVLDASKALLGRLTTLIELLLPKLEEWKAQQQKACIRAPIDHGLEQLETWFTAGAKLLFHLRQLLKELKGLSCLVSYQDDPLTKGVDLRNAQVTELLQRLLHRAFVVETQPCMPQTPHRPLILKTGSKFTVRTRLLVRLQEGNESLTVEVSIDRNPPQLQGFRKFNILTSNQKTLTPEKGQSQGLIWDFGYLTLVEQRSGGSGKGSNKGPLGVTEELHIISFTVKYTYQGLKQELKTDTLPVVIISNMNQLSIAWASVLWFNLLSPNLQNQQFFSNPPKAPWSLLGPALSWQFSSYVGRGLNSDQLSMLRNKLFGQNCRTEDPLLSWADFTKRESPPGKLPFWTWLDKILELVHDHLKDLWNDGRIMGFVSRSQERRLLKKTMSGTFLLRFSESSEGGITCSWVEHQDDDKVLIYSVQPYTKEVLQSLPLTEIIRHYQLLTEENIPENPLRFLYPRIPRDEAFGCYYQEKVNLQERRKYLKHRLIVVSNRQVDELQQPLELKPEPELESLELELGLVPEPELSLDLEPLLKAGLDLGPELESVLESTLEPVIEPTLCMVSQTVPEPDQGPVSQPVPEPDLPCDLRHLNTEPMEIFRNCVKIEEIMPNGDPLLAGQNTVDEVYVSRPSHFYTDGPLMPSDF
UniProt Q9BXP5: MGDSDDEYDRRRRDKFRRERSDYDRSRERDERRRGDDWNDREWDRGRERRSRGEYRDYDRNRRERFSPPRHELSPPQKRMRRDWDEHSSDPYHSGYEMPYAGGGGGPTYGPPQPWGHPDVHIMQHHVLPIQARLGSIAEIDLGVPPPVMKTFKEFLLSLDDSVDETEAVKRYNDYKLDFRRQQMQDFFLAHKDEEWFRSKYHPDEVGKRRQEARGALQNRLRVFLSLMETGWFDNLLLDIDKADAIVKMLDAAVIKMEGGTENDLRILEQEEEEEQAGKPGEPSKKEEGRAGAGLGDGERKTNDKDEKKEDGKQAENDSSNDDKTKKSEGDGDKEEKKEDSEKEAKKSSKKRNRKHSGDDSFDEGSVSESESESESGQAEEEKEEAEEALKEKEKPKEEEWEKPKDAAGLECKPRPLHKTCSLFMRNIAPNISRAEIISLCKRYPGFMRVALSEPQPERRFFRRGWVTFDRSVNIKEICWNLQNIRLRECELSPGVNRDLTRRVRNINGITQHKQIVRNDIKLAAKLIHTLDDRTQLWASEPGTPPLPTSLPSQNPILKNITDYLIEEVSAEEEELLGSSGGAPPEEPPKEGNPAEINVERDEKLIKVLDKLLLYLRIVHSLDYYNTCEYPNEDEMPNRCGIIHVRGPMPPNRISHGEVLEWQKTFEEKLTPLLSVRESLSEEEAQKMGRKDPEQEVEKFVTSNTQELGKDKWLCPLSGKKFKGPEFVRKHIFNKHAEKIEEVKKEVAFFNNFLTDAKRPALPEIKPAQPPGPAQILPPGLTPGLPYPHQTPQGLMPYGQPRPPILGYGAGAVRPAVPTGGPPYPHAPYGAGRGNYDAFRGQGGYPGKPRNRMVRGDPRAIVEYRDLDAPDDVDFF
UniProt Q15208: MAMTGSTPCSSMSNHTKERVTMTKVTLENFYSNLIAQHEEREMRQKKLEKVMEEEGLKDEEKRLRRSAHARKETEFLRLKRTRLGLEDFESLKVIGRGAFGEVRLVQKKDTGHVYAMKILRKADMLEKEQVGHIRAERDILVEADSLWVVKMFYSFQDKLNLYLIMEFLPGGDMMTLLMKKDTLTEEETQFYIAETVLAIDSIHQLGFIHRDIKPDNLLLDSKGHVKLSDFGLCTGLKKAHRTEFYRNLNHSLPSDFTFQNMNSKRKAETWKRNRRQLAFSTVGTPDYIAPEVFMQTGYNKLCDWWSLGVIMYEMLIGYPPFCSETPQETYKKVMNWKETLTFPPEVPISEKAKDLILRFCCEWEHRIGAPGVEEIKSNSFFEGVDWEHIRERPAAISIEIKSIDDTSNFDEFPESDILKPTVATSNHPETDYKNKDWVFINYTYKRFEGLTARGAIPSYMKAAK
UniProt P08240: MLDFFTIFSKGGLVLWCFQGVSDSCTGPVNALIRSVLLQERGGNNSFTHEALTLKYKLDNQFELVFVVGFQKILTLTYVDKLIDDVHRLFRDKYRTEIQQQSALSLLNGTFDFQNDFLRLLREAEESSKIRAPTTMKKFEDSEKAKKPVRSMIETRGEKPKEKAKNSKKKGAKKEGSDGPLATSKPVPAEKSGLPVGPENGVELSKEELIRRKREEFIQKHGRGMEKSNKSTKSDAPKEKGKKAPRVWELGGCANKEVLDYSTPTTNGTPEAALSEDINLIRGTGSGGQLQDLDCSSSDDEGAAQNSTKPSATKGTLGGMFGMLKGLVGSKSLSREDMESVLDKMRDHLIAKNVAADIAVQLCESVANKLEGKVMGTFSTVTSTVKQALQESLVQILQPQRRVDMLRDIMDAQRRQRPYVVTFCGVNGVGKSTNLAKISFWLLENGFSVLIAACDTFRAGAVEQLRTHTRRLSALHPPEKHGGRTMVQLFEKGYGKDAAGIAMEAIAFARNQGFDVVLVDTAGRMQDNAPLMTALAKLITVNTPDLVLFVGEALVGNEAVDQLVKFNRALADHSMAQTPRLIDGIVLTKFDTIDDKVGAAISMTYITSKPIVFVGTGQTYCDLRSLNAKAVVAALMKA
UniProt O95210: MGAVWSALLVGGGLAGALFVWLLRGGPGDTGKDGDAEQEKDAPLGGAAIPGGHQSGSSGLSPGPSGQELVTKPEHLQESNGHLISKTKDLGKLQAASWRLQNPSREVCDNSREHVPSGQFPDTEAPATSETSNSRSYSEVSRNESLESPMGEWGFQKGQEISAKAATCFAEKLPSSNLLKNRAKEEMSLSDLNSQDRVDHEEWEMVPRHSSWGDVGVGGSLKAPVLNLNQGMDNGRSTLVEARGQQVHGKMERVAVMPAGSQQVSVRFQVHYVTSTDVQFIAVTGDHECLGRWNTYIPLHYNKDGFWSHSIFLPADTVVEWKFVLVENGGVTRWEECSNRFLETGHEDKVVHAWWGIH
UniProt Q9Y5Y6: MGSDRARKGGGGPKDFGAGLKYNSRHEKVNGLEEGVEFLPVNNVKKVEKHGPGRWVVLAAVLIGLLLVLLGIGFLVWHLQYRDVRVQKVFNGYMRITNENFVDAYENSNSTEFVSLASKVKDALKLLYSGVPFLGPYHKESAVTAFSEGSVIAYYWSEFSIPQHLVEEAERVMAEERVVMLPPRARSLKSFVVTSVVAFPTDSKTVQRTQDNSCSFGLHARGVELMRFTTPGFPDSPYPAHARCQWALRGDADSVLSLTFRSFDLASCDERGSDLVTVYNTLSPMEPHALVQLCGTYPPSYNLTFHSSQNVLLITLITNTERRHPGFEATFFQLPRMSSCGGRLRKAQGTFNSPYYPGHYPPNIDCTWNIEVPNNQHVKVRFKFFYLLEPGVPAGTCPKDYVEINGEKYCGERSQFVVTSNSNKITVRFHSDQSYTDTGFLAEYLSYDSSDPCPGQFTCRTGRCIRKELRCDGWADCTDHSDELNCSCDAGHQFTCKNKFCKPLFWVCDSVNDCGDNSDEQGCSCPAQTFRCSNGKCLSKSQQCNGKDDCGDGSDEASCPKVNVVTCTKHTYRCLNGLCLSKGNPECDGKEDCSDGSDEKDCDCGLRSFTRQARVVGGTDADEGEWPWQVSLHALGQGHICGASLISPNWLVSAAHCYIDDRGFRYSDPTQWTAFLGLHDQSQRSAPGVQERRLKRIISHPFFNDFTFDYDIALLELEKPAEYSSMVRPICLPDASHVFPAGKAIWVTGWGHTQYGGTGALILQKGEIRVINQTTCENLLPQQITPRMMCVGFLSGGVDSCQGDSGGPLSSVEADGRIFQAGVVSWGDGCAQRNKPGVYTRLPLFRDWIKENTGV
UniProt Q16629: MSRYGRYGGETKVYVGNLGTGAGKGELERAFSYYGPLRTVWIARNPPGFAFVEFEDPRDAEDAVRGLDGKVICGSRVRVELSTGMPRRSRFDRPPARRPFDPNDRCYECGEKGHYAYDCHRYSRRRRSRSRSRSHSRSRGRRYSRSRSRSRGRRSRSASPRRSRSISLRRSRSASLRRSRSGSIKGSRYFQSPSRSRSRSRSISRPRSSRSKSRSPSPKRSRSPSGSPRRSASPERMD
UniProt Q9BWW4: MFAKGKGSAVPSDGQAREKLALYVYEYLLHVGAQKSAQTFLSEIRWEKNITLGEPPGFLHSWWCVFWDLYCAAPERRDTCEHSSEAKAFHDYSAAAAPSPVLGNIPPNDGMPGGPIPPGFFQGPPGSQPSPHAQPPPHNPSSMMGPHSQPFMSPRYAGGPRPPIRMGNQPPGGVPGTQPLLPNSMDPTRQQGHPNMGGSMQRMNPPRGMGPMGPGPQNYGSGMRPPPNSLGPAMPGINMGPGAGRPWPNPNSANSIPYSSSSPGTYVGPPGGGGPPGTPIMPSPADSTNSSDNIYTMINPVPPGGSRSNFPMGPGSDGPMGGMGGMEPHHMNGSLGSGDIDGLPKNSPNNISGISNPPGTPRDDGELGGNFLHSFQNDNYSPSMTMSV
UniProt Q9Y6E0: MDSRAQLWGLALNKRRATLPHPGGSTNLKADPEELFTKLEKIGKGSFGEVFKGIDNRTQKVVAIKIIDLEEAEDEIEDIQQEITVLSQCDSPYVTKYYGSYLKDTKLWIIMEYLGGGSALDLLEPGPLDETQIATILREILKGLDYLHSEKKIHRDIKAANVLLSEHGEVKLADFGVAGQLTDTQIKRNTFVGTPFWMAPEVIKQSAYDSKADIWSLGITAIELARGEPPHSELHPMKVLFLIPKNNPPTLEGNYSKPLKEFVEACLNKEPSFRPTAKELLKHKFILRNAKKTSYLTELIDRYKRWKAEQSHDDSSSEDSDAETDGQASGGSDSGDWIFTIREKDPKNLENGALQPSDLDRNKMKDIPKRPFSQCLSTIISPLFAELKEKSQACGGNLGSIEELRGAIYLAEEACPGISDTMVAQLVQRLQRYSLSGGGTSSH

These targets were tested with CC1Cc2ccccc2N1C(=O)C1CCCN(C1)C(=O)CCl (mixture of isomers) [TRIM25 ligand 11 (diastereomer mixture)] (assay: probe-labelled cysteine peptide fold change vs DMSO (competition) (log2 fold change); higher = less target engagement (more negative = stronger competition)). Conditions: 10 µM; THP-1; incubation time: 4 h.
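Further: competitive chemoproteomic profiling in live THP-1 cells with an iodoacetamide desthiobiotin (IA-DTB) probe, comparing probe-labelled peptide intensities in compound-treated cells against DMSO-treated controls.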

| Target | probe-labelled cysteine peptide fold change |
| --- | --- |
| SUZ12_Q15022_325_LQLLDGEYEVAMQEMEECPISK (UniProt Q15022) | -0.0543 |
| SUN2_Q9UH99_601_VILQPDVHPGNCWAFQGPQGFAVVR (UniProt Q9UH99) | 0.0666 |
| STAT2_P52630_174_DQQDVFCFR (UniProt P52630) | 0.0891 |
| SRRT_Q9BXP5_640_CGIIHVR (UniProt Q9BXP5) | -0.017 |
| STK38_Q15208_9_AMTGSTPCSSMSNHTK (UniProt Q15208) | 0.2 |
| STIP1_P31948_417_DCEECIQLEPTFIK (UniProt P31948) | -0.211 |
| SUPT6H_Q7KZ85_796_DHPVFCALVNGEGEVTDFLR (UniProt Q7KZ85) | 0.36 |
| SRPRA_P08240_424_QRPYVVTFCGVNGVGK (UniProt P08240) | 0.0456 |
| SUN1_O94901_403_QPLQGDSEAFPWHWMSGVEQQVASLSGQCHHHGENLR (UniProt O94901) | -0.168 |
| STBD1_O95210_337_WEECSNR (UniProt O95210) | 0.186 |
| ST14_Q9Y5Y6_268_SFDLASCDER (UniProt Q9Y5Y6) | 0.0714 |
| SRSF7_Q16629_73_VICGSR (UniProt Q16629) | -0.452 |
| SUZ12_Q15022_201_DVSCPIR (UniProt Q15022) | 0.0532 |
| STRADA_Q7RTN6_107_INLEACSNEMVTFLQGELHVSK (UniProt Q7RTN6) | 0.193 |
| SSBP3_Q9BWW4_80_DTCEHSSEAK (UniProt Q9BWW4) | -0.0926 |
| STK24_Q9Y6E0_375_RPFSQCLSTIISPLFAELK (UniProt Q9Y6E0) | -0.0184 |

Two entries from above, bar-delimited:
Target | probe-labelled cysteine peptide fold change
SRRT_Q9BXP5_640_CGIIHVR (UniProt Q9BXP5) | -0.017
ST14_Q9Y5Y6_268_SFDLASCDER (UniProt Q9Y5Y6) | 0.0714
